Experimental findings from PubChem BioAssay AID2685 (National Center for Advancing Translational Sciences (NCATS), 2010) are described below.

Molecules are shown by their SMILES. This is one part of the list. Shown are side measurements of this screen, not its main read-out; they come without a call. The list favours compounds with an active or inconclusive main result. Potencies come from curve fits of mixed quality, noted in brackets.

The assay is described as follows: qHTS Assay for Lipid Storage Modulators in Drosophila S3 Cells.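 For cell number change: cells counted by Cell Tracker Red CMTPX staining in the red channel.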 Particulars: BODIPY lipid droplet fluorescence, 18-24 h. Summed up:
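Drosophila S3 cells loaded with oleic acid (400 uM, as added) and compounds at several concentrations; lipid droplets imaged by 488-nm laser-scanning cytometry, 500–530 nm intensity and object ratio to cell channel. Percent activity normalized to 20 uM Triacsin C.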

`Cc1ccccc1N/N=C/c1sc(=O)n(Cc2cccc(C(=O)O)c2)c1Cl` came in with a cell number change (measured here: cell count max response, cells fed with added oleic acid) of 10%. Also, the AC50 (measured here: lipid fluorescence (Fed channel) AC50, cells fed with added oleic acid) was 6.51 µM [rising, single point].
